# Microarray screen: hit calls

Calls as published in the ROBIN set (doi:10.1002/anie.202211358).

Targets, with sequences 5′ to 3′:
T1: TPP riboswitch RNA three-way junction, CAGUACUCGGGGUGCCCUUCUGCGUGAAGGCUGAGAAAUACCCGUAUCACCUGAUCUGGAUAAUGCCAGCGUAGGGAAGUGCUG. About 160 hits among about 24,000 compounds.
T2: PreQ1 riboswitch RNA pseudoknot, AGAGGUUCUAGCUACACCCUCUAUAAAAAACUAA. From B. subtilis. About 170 hits among about 24,000 compounds.
T3: SAM-II riboswitch RNA pseudoknot, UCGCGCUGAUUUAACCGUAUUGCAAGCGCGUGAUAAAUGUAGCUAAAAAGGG. About 200 hits among about 21,000 compounds.

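Compounds were printed on reactive glass slides in duplicate spots, a dye-labelled oligonucleotide was laid over them, and the fluorescence left after washing was read. For the PreQ1, TPP and SAM-II riboswitches the laboratory earlier reported (doi:10.1038/s41467-019-09493-3) 1 µM RNA, 2 h, and a rule that included a mean Z-score above 3 (spot signal-to-noise against the whole library), a score well above that on a control array, and duplicate spots agreeing (coefficient of variation under 100). The data file gives only the calls; its cut-offs may differ, and compounds hitting several targets are kept. These are primary screening calls, not affinities; a compound without a hit may have attached poorly or may still bind in solution.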
Key: yes = hit, no = tested without a hit.
This is an unselected part of the compounds tested.
A target missing from an entry has no call listed here.
A dash means that no call is listed here.

structure,T1,T2,T3
Fc1ccc(C(CCNCc2ccccc2F)c2ccco2)cc1 (centres unmarked),no,no,no
CCCCCn1c(N)c(C#N)c2nc3ccccc3nc21,no,no,no
COC(=O)C1=C(N)OC2=C(C(=O)CC(C)(C)C2)C1c1ccccc1Cl (centres unmarked),no,no,no
CCCCOCC(=O)N1CCNCC1C(=O)NCc1cccnc1 (centres unmarked),no,no,no
CCNC[C@@H]1CCN(CC)[C@H]1c1ccccc1OC,no,no,no
O=c1cccc2n1CC1CC2CN(c2nc(Cl)nc(NCCN3CCOCC3)n2)C1 (centres unmarked),no,no,no
CSc1nn(Cc2ccccc2)c(N)c1S(=O)(=O)c1ccccc1,yes,yes,yes
CNC(=O)[C@@H]1C[C@@H](N)CN1C(=O)c1csc(Cc2ccccc2)n1,no,no,no
COc1ccc(CCN(C)CCCC(C#N)(c2ccc(OC)c(OC)c2)C(C)C)cc1OC (centres unmarked),no,no,no
Cc1ccc(Nc2nc3nonc3nc2N(C)C)cc1,no,no,no
COc1ccccc1N(CC(O)Cn1c(C)nc2ccccc21)S(=O)(=O)c1ccccc1 (centres unmarked),no,no,no
Cc1ccc(OCCn2c(=N)n(CCO)c3ccccc32)cc1,no,no,no
Nc1nc(CNC(=O)c2cc(COc3cncc(Cl)c3)on2)cs1,no,no,no
c1ccc(OCCCNCc2cccnc2)nc1,no,no,no
CN1c2ccccc2C2=C(C(c3ccc(Br)cc3)C(C#N)=C(N)O2)S1(=O)=O (centres unmarked),no,no,-
COc1ccc(CN(Cc2ccncc2)C(=O)[C@H]2CC[C@@H](N)C2)cc1,no,no,no
CCN(CCO)C[C@@H]1CN(C(=O)c2cc(C)oc2-c2ccccc2)C[C@@H]1CO,no,no,no
Cn1c(N2CC[C@H](O)C2)nc2cc(C(=O)N[C@H]3CCc4ccccc43)ccc21,no,no,no
Cc1ccc(CNc2cc(C(C)C)nc3nc(-c4cccnc4)nn23)cc1,no,no,-
CCC(CO)N(Cc1ccc(C)s1)C(=O)c1cccc(C(C)=O)c1 (centres unmarked),no,no,no
O=C(N[C@@H]1CCNC[C@H]1O)c1cccc(-c2ccc(OC(F)(F)F)cc2)c1,no,no,no
CCN(CC)c1ccc(C=C2C(=O)NC(=S)NC2=O)cc1,no,no,no
Cc1n[nH]c(C)c1C(N)C(=O)N1CCC2(C=Cc3ccccc32)CC1 (centres unmarked),no,no,no
CC1(C)CC(=O)C(C(=O)c2ccccc2)=C(NCCc2nc3ccccc3[nH]2)C1,no,no,no
Cc1ccc(-c2nc3cccc(C)n3c2Nc2ccc3c(c2)OCCO3)o1,no,no,no
COc1cc(CNC2CCCCC2)ccc1OCc1ccc2c(c1)n(C)c(=O)n2C,no,no,-
Cn1c(NCCO)nc2c(c1=O)C1(CCCCC1)Cc1ccccc1-2,no,no,no
CN(CCO)C(=O)c1cccc2c1-c1ccccc1C2=O,no,no,no
Cc1ccc([C@H]2CN(C(=O)c3ccc(-n4cnnc4)cc3)C[C@@H]2N)o1,no,no,no
CC(=O)c1ccc(Nc2cc(C)nc3nc(Cc4ccccc4)nn23)cc1,no,no,-
COc1cc(Nc2ncc(F)c(Nc3ccc4c(n3)N(COP(=O)(O)O)C(=O)C(C)(C)O4)n2)cc(OC)c1OC,no,no,no
COc1cc(OC)c(C2C(C#N)=C(N)Oc3[nH]nc(C(C)C)c32)c(OC)c1 (centres unmarked),no,no,no
CCOC(=O)/C(C#N)=C\c1c[nH]c2ccccc12,no,no,no
CCC(CO)N(Cc1ccccn1)C(=O)c1cccnc1NC (centres unmarked),no,no,no
Cc1nc(NCCN2CCOCC2)cc(-c2ccccc2)n1,no,no,-
Nc1nc(=O)n([C@H]2CS[C@H](CO)O2)cc1F,no,no,no
O=c1c2c(nc(SCCO)n1C1CCCC1)-c1ccccc1CC21CCCC1,no,no,-
Cc1nc2sc3c(NCCN4CCOCC4)ncnc3c2c2c1CCCC2,no,no,no
CC(C)c1nnsc1CNC(=O)CCc1csc(N)n1,no,no,no
Cc1cc(CN)on1,no,no,no
COc1cc(OC2CCN(C)CC2)ccc1Nc1ncc2c(n1)n(C1CCCC1)c(=O)n2C,no,no,no
CCCCn1nc(C)nc1-c1cnc(N)nc1C(F)(F)F,no,no,no
COc1ncccc1-c1nc2ccccc2n1CCO,no,no,no
Cc1nnc(N2C[C@@H](CN3CCC(CO)CC3)[C@@H](CO)C2)c2ccccc12,no,no,no
CC(=CCCC1=CCC(C2=CC(=O)OC2O)OC1O)CCC1=C(C)CCCC1(C)C (centres unmarked),no,no,no
CN(Cc1cnc(N)nc1)C(=O)C(c1cccc(F)c1)N(C)C (centres unmarked),no,no,no
CCCCCN1CC(=O)C(c2nc3ccccc3[nH]2)=C1N,no,no,-
NCC(CC(=O)O)c1ccccc1 (centres unmarked),no,no,no
Cc1ccc(-c2noc(CNc3ccc(Br)cc3)n2)cc1,no,no,no
COc1ccc(C2C(C#N)=C(N)Oc3c2c(=O)sc2ccccc32)cc1OC (centres unmarked),no,no,no

Repeated from the top, 6 entries:

- Fc1ccc(C(CCNCc2ccccc2F)c2ccco2)cc1 (centres unmarked) | T1: no; T2: no; T3: no
- CCCCCn1c(N)c(C#N)c2nc3ccccc3nc21 | T1: no; T2: no; T3: no
- COC(=O)C1=C(N)OC2=C(C(=O)CC(C)(C)C2)C1c1ccccc1Cl (centres unmarked) | T1: no; T2: no; T3: no
- CCCCOCC(=O)N1CCNCC1C(=O)NCc1cccnc1 (centres unmarked) | T1: no; T2: no; T3: no
- CCNC[C@@H]1CCN(CC)[C@H]1c1ccccc1OC | T1: no; T2: no; T3: no
- O=c1cccc2n1CC1CC2CN(c2nc(Cl)nc(NCCN3CCOCC3)n2)C1 (centres unmarked) | T1: no; T2: no; T3: no